From PMC6813348
These are yes or no findings as the source states them, for the method shown. For some of these results: In cells and extracts the contact can be indirect. Some entries that bind do so weakly or less than the wild type. For some of these results: Tags and fused reporters may be left off the sequences shown.

Chains of the proteins cited; added tags and fusions are not shown.
UniProt P40337: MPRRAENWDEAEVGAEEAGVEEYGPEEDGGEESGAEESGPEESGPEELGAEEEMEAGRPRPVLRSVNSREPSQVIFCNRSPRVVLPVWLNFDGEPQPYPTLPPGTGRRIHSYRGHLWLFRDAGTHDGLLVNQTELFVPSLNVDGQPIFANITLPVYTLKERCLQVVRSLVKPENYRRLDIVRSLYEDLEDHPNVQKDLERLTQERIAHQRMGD

Tests used:
[1] = target: T1, NLS-GFP-Btn2 (S. cerevisiae) (UniProt P53286); assay: co-IP; lysate of hsp42Δ btn2Δ yeast after proteotoxic stress (37 °C + MG132); GFP constructs isolated on GFP-binder beads in IP buffer (50 mM Tris pH 7.5, 150 mM NaCl, 0.1% TX-100), 4 °C, 1 h; mCherry-VHL detected by western blot
T1 sequence: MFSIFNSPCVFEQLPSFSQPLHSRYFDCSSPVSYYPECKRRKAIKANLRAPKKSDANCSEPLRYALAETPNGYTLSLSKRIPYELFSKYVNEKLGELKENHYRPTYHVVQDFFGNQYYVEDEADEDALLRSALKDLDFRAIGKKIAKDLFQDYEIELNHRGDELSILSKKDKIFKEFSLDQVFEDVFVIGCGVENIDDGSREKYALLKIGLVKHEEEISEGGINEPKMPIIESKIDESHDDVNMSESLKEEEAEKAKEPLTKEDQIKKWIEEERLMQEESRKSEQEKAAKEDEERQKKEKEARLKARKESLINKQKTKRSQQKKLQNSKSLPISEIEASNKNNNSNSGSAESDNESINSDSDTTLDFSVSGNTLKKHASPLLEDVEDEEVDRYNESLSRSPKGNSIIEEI

[2] = target: T2, NLS-GFP-CTD (S. cerevisiae) (UniProt P53286); assay: as above
T2 sequence: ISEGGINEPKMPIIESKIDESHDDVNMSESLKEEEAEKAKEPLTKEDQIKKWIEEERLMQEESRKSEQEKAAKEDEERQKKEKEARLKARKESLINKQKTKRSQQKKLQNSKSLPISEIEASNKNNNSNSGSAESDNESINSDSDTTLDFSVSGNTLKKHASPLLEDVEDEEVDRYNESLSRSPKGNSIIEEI

[3] = target: T3, NLS-GFP-αCLD (S. cerevisiae) (UniProt P53286); assay: as above
T3 sequence: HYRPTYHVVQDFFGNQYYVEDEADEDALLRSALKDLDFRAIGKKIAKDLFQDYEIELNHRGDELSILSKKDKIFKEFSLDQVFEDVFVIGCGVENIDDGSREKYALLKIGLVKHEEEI

Btn2ΔN (S. cerevisiae) = target: T4, Btn2ΔN (S. cerevisiae) (UniProt P53286); assay: pull-down; 1 μM of each protein in buffer A, 25 °C, 15 min; Btn2 isolated on Btn2-binder beads (Btn2 antibodies on NHS-sepharose), seven washes; SDS-PAGE with SYPRO-Ruby; both purified
T4 sequence: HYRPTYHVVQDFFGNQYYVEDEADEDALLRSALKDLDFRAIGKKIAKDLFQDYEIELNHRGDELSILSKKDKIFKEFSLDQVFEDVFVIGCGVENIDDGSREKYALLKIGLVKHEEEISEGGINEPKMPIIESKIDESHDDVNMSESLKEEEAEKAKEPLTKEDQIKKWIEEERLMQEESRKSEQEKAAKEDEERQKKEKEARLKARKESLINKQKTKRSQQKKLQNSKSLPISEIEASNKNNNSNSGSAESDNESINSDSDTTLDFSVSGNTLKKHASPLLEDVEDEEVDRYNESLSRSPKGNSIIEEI

| Molecule | binding [1] | binding [2] | binding [3] | binding (Btn2ΔN (S. cerevisiae)) |
| --- | --- | --- | --- | --- |
| mCherry-VHL (from UniProt P40337 1-213) | binds | no binding | binds |  |
| Sis1 (protein, UniProt P25294 1-352) MVKETKLYDLLGVSPSANEQELKKGYRKAALKYHPDKPTGDTEKFKEISEAFEILNDPQKREIYDQYGLEAARSGGPSFGPGGPGGAGGAGGFPGGAGGFSGGHAFSNEDAFNIFSQFFGGSSPFGGADDSGFSFSSYPSGGGAGMGGMPGGMGGMHGGMGGMPGGFRSASSSPTYPEEETVQVNLPVSLEDLFVGKKKSFKIGRKGPHGASEKTQIDIQLKPGWKAGTKITYKNQGDYNPQTGRRKTLQFVIQEKSHPNFKRDGDDLIYTLPLSFKESLLGFSKTIQTIDGRTLPLSRVQPVQPSQTSTYPGQGMPTPKNPSQRGNLIVKYKVDYPISLNDAQKRAIDENF |  |  |  | no binding (tested: 1 μM) |
